Measured values from patent publication US20240166690A1, “MULTI-TARGET CY[…] FOR OPIOID/NEUROPEPTIDE FF RECEPTORS, AND PREPARATION THEREFOR AND APPLICATION THEREOF” (SHANGHAI TIANCI LIFE SCIENCE DEVELOPMENT CO., LTD., priority 2021, published 2024).
For some of these results: At least one peptide structure holds a part that was inferred or is arguable (an end, a ring closure or a residue). For some of these results: The name of at least one read-out is uncertain. Some entries repeat one wording, which the source may state once for all of them. Some results were stated once for a whole list of compounds, not compound by compound. Bridge positions count the residues as written; N and C are the ends. Square brackets hold non-standard residues; d marks the D form. Peptide text beside a SMILES is read from it. NMeF = CN[C@@H](Cc1ccccc1)C(=O)O; Cha = N[C@@H](CC1CCCCC1)C(=O)O; dOrn = NCCC[C@@H](N)C(=O)O; dDab = NCC[C@@H](N)C(=O)O; dDap = NC[C@@H](N)C(=O)O; Aib = CC(C)(N)C(=O)O; βAla = NCCC(=O)O

Chains of the proteins cited; added tags and fusions are not shown. Lines headed by an entry give the natural chain unless they say otherwise; changes in a name come on top.
UniProt P35372, whole entry: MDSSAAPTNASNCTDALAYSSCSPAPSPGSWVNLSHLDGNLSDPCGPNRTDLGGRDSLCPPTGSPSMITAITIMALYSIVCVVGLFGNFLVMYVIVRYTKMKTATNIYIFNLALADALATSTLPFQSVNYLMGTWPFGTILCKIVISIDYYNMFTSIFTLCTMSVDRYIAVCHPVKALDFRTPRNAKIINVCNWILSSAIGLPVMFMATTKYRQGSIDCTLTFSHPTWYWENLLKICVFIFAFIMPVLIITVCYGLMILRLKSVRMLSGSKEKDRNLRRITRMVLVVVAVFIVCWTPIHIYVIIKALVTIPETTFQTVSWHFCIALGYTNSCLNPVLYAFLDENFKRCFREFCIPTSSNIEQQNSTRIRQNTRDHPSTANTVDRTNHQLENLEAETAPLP
UniProt Q9Y5X5: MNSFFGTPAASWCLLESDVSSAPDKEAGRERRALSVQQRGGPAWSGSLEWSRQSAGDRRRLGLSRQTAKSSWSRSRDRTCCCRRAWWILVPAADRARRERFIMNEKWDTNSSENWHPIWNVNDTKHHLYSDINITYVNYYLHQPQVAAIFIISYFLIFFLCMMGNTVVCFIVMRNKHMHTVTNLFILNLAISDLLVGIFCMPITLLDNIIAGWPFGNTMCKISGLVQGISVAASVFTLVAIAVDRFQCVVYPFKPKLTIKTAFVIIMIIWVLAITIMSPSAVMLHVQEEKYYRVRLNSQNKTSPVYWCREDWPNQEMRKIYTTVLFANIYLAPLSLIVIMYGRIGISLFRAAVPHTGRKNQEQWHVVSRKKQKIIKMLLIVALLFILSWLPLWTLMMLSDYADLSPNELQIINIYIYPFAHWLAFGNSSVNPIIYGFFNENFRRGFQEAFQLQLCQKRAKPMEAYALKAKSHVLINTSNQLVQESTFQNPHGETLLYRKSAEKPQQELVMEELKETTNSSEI
UniProt P41145: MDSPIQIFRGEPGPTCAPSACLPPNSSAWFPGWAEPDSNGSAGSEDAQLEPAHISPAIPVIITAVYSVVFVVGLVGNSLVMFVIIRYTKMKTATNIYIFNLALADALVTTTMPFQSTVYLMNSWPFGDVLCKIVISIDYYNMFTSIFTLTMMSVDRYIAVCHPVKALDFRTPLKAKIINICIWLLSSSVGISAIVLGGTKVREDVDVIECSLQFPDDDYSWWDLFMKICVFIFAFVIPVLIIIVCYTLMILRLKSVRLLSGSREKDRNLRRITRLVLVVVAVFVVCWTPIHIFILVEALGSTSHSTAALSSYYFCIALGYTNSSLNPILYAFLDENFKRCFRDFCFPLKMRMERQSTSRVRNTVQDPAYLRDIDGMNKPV
UniProt P41143, whole entry: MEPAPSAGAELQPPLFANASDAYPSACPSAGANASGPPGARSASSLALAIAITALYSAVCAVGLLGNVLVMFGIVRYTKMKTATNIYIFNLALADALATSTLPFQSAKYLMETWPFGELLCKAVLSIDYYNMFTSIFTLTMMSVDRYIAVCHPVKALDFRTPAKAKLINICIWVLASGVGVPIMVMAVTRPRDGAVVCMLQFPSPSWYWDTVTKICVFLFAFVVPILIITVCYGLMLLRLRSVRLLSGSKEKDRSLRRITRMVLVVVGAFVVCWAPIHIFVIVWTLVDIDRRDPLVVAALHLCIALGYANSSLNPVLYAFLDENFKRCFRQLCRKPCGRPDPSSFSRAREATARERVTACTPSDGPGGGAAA
UniProt Q9GZQ6: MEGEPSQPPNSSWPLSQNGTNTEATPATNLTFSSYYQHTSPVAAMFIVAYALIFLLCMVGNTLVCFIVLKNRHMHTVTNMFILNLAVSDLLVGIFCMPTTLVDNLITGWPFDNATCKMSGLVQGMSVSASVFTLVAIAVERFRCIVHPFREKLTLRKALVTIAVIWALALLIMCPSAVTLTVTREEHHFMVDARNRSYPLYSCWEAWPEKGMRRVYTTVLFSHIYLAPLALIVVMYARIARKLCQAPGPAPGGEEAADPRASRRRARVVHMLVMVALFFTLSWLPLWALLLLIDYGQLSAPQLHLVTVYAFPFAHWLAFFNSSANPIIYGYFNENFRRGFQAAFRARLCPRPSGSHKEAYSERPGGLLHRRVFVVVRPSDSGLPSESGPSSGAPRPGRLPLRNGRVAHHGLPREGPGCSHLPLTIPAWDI

How the values were obtained:
Kunming male mice [1] = assay: Photothermal tail flick experiment, subcutaneous injection; format: in vivo
Method: Two administration methods were used: peripheral subcutaneous administration and oral administration. Subsequently, the analgesic activity of the drug was studied using an acute pain model of photothermal tail flick in mice.
Subcutaneous administration on the back was chosen for subcutaneous administration (s.c.). A sterile 1 mL syringe was used and the drug with the volume of 0.1 mL/10 g was injected for administration. The back skin was grasped with the right hand, the needle was tilted in, and the drug was injected subcutaneously into the mouse's back. After the needle was inserted, shook it left and right, and observe to confirm that the needle had indeed entered the subcutaneous area to prevent the needle from puncturing the skin and leaking the drug.
The photothermal tail flick experiment is based on the experimental method summarized by D'Amour and Smith to optimize the experimental parameters. The experiment selected Kunming male mice with body weigh 21±2 g, and ambient temperature controlled at 22±2° C. The experimental mice were allowed to drink water freely and were moved from the breeding room to the experimental area for adaptation for 30 minutes before starting the experiment. Then the mice were grab with the right hand and the tail hang freely. Then the mice's tail were placed on a radiation light source, 2-3 mm away from the mice tail. The intensity of radiation heat was adjusted to the tail flick time of mice being 3-5 s, which is the basic pain threshold of photothermal tail flick. The irradiation time of the mice tail should not exceed 10 s to prevent scalding of the mice tail, which was the maximum latency for photothermal tail flick. After administration, time points of 10, 20, 30, 45, 60, 90, 120, 180, 240, 300, 360, and 420 minutes were selected to measure the tail flick latency of mice after administration.
The analgesic effect of drugs was generally evaluated using the maximum analgesic effect MPE (%), MPE (%)=100×[(pain threshold after administration−basic pain threshold)/(10 seconds−basic pain threshold)]. 50% effective dose (ED50) refers to the corresponding drug dose that causes a 50% effect. ED50 and 95% confidence interval were calculated using MPE (%) and the drug concentration that achieves the maximum analgesic effect MPE (%) by the statistical software GraphPad Prism 5.0. The difference in analgesic effects was statistically analyzed using one-way ANOVA (Dunnett test), *P<0.05, **P<0.01, and ***P<0.001 indicated significance of the difference between the group with only drug injected and the saline group.

Mu-opioid receptor = target: T1, Mu-opioid receptor (Homo sapiens, UniProt P35372); assay: cAMP functional experiment, Mu-opioid receptor (forskolin-induced cAMP accumulation); format: cell-based; settings: HEK293 cell line stably expressing the receptor
T1 construct: expressed in transfected cells; host or cells: HEK293
Method: (§1) The agonistic activity of the cyclopeptide molecule of the present invention against Mu-opioid receptor, Delta-opioid receptor, Kappa-opioid receptor, NPFF1 receptor and NPFF2 receptor was evaluated by detecting the regulation of the cyclopeptide molecule of the present invention on the intracellular accumulation of cyclic adenosine monophosphate (cAMP) induced by Forskolin in HEK293 cells stably expressing these five receptors. The experimental method was: the cells were seeded in 24 well plates with 120000 cells per well, and were cultured for more than 20 hours. At the beginning of the experiment, the culture medium in the culture dish was suck out, and then 500 μL of preheated serum-free medium containing 1 mM of IBMX was added, the mixture was incubated at 37° C. for 10 minutes. Then each 10 μL of the drug to be tested and 10 μM of forskolin (final concentration) were added to each well. The mixture was incubated at 37° C. for 30 minutes. After incubation, all the liquid was suck out from the culture dish, 500 μL of 0.2 N hydrochloric acid was added to each well, the mixture was incubated at room temperature for 30 minutes to promote cell lysis. After lysis was complete, NaOH was added to neutralize the hydrochloric acid solution used for lysis. Then all the liquid was suck out from the culture dish into centrifuge tubes, the liquid was centrifuged at 12000 rpm for 2 minutes. 50 μL was taken to a clean centrifuge tube, 100 μL of 60 μg/μL PKA was added, and 100 μL of TE cAMP buffer was added to the blank control group (B). Another 50 μL of 0.5 μ Ci[^3H]cAMP was added to each of the above centrifuge tubes, the mixture was quickly mixed and incubated at 4° C. for more than 2 hours. After incubation, another 100 μL of activated carbon suspension was added to each tube, the mixture was vortex agitated evenly, placed in an ice bath for 1 minute, centrifuged at 5000 rpm for 4 minutes. 200 μL of supernatant after centrifugation in each tube was suck out to a 24 well plate, with an additional 700 μL of scintillator liquid added per well, then the 24 well plate was sealed with adhesive film, placed for 3 hours, then placed on the scintillation instrument for measurement.
(§2) The inhibitory effect of cAMP was represented by the percentage (% control) of drug inhibition of intracellular cAMP accumulation induced by Forskolin, wherein % control=(cAMP content when treated with Forskolin−cAMP content when Forskolin co-treated with the test drug)/(cAMP content when treated with Forskolin−cAMP content when treated with solvent). The related % control data was represented by mean±S.E.M. The dose-effect relationship of the drug was statistically analyzed using a nonlinear regression model, and the IC50 values of the multi-target cyclopeptide molecule on inhibition of Forskolin induced intracellular cAMP accumulation were calculated using the statistical software GraphPad Prism version 5.0.

NPFF2 receptor = target: T2, NPFF2 receptor (Homo sapiens, UniProt Q9Y5X5); assay: cAMP functional experiment, NPFF2 receptor (forskolin-induced cAMP accumulation); format: cell-based; settings: HEK293 cell line stably expressing the receptor
T2 construct: expressed in transfected cells; host or cells: HEK293
Method: as §1, §2

Kappa-opioid receptor = target: T3, Kappa-opioid receptor (Homo sapiens, UniProt P41145); assay: cAMP functional experiment, Kappa-opioid receptor (forskolin-induced cAMP accumulation); format: cell-based; settings: HEK293 cell line stably expressing the receptor
T3 construct: expressed in transfected cells; host or cells: HEK293
Method: as §1, §2

Delta-opioid receptor = target: T4, Delta-opioid receptor (Homo sapiens, UniProt P41143); assay: cAMP functional experiment, Delta-opioid receptor (forskolin-induced cAMP accumulation); format: cell-based; settings: HEK293 cell line stably expressing the receptor
T4 construct: expressed in transfected cells; host or cells: HEK293
Method: as §1, §2

Kunming male mice [2] = assay: Blood-brain barrier permeability assay (naloxone iodide/naloxone antagonism), subcutaneous compound; format: in vivo; settings: subcutaneous injection of compound, naloxone iodide i.c.v./s.c.
NPFF1 receptor = target: T5, NPFF1 receptor (Homo sapiens, UniProt Q9GZQ6); assay: cAMP functional experiment, NPFF1 receptor (forskolin-induced cAMP accumulation); format: cell-based; settings: HEK293 cell line stably expressing the receptor
T5 construct: expressed in transfected cells; host or cells: HEK293
Method: as §1, §2

Row | SMILES | subcutaneous analgesic ED50, fold lower than parent molecule DN-9 (Kunming male mice [1]) | agonistic activity for Mu-opioid receptor (Mu-opioid receptor) | agonist activity for NPFF2 receptor (NPFF2 receptor) | agonistic activity for Kappa-opioid receptor (Kappa-opioid receptor) | agonistic activity for Delta-opioid receptor (Delta-opioid receptor) | Blood-brain barrier permeability (Kunming male mice [2]) | Blood-brain barrier permeability (Kunming male mice [2]; listed as compound 2) | agonist activity for NPFF1 receptor (NPFF1 receptor) | Blood-brain barrier permeability (Kunming male mice [2]; listed as compound 9) | Blood-brain barrier permeability (Kunming male mice [2]; listed as compound 10) | ED50 value (95% confidence interval), analgesic activity (Kunming male mice [1]; photothermal tail flick) | Blood-brain barrier permeability (Kunming male mice [2]; listed as compound 8)
1 | CN1C(=O)CNC(=O)[C@H](NC(=O)[C@@H](N)Cc2ccc(O)cc2)CCCCNC(=O)C[C@@H](C(=O)N2CCC[C@H]2C(=O)NCCC(=O)N[C@@H](CCCNC(=N)N)C(=O)N[C@@H](CC2CCCCC2)C(N)=O)NC(=O)[C@@H]1Cc1ccccc1 [Compound 13, Tyr-c[D-Lys-Gly-NMe-Phe-Asp]-Pro-β-Ala-Arg-Cha-NH2] (H-Y[dK]G[NMeF]DP[βAla]R[Cha]-NH2; lactam 2-5) | at least 10000 times |  |  |  |  |  |  |  |  |  |  | 
2 | CN1C(=O)CNC(=O)[C@H](NC(=O)[C@@H](N)Cc2ccc(O)cc2)CCCCNC(=O)CC[C@@H](C(=O)N2CCC[C@H]2C(=O)N[C@@H](CCC(N)=O)C(=O)N[C@@H](CCCNC(=N)N)C(=O)N[C@@H](Cc2ccccc2)C(N)=O)NC(=O)[C@@H]1Cc1ccccc1 [Compound 2, Tyr-c^[2,5][D-Lys-Gly-NMe-Phe-Glu]-Pro-Gln-Arg-Phe-NH2] (H-Y[dK]G[NMeF]EPQRF-NH2; lactam 2-5) |  | dose-dependently inhibited cAMP accumulation induced by forskolin | dose-dependently inhibited cAMP accumulation induced by forskolin | dose-dependently inhibited cAMP accumulation induced by forskolin | dose-dependently inhibited cAMP accumulation induced by forskolin | Not permeable | neither compounds 1-14 could penetrate the blood-brain barrier | dose-dependently inhibited cAMP accumulation induced by forskolin |  |  |  | 
3 | CN1C(=O)CNC(=O)[C@H](NC(=O)[C@@H](N)Cc2ccc(O)cc2)CCNC(=O)C[C@@H](C(=O)N2CCC[C@H]2C(=O)N[C@@H](CCC(N)=O)C(=O)N[C@@H](CCCNC(=N)N)C(=O)N[C@@H](Cc2ccccc2)C(N)=O)NC(=O)[C@@H]1Cc1ccccc1 [Compound 9, Tyr-c^[2,5][D-Dab-Gly-NMe-Phe-Asp]-Pro-Gln-Arg-Phe-NH2] (H-Y[dDab]G[NMeF]DPQRF-NH2; lactam 2-5) |  | dose-dependently inhibited cAMP accumulation induced by forskolin | dose-dependently inhibited cAMP accumulation induced by forskolin | dose-dependently inhibited cAMP accumulation induced by forskolin | dose-dependently inhibited cAMP accumulation induced by forskolin | Not permeable |  | dose-dependently inhibited cAMP accumulation induced by forskolin | neither compounds 1-14 could penetrate the blood-brain barrier |  |  | 
4 | CN1C(=O)CNC(=O)[C@H](NC(=O)[C@@H](N)Cc2ccc(O)cc2)CNC(=O)C[C@@H](C(=O)N2CCC[C@H]2C(=O)N[C@@H](CCC(N)=O)C(=O)N[C@@H](CCCNC(=N)N)C(=O)N[C@@H](Cc2ccccc2)C(N)=O)NC(=O)[C@@H]1Cc1ccccc1 [Compound 10, Tyr-c^[2,5][D-Dap-Gly-NMe-Phe-Asp]-Pro-Gln-Arg-Phe-NH2] (H-Y[dDap]G[NMeF]DPQRF-NH2; lactam 2-5) |  | dose-dependently inhibited cAMP accumulation induced by forskolin | dose-dependently inhibited cAMP accumulation induced by forskolin | dose-dependently inhibited cAMP accumulation induced by forskolin | dose-dependently inhibited cAMP accumulation induced by forskolin | Not permeable |  | dose-dependently inhibited cAMP accumulation induced by forskolin |  | neither compounds 1-14 could penetrate the blood-brain barrier |  | 
5 | CN1C(=O)CNC(=O)[C@H](NC(=O)[C@@H](N)Cc2ccc(O)cc2)CCCCNC(=O)C[C@@H](C(=O)N2CCC[C@H]2C(=O)NC(C)(C)C(=O)N[C@@H](CCCNC(=N)N)C(=O)N[C@@H](CC2CCCCC2)C(N)=O)NC(=O)[C@@H]1Cc1ccccc1 [Compound 14, Tyr-c^[2,5][D-Lys-Gly-NMe-Phe-Asp]-Pro-Aib-Arg-Cha-NH2] (H-Y[dK]G[NMeF]DP[Aib]R[Cha]-NH2; lactam 2-5) | at least 10000 times |  |  |  |  |  |  |  |  |  |  | 
6 | CN1C(=O)CNC(=O)[C@H](NC(=O)[C@@H](N)Cc2ccc(O)cc2)CCC(=O)NCCCC[C@@H](C(=O)N2CCC[C@H]2C(=O)N[C@@H](CCC(N)=O)C(=O)N[C@@H](CCCNC(=N)N)C(=O)N[C@@H](Cc2ccccc2)C(N)=O)NC(=O)[C@@H]1Cc1ccccc1 [Compound 7, Tyr-c^[2,5][D-Glu-Gly-NMe-Phe-Lys]-Pro-Gln-Arg-Phe-NH2] (H-Y[dE]G[NMeF]KPQRF-NH2; lactam 2-5) |  |  |  |  |  |  |  |  |  |  | 19.6 (12.8 to 29.9) μg/kg | 
7 | CN1C(=O)CNC(=O)[C@H](NC(=O)[C@@H](N)Cc2ccc(O)cc2)CCCNC(=O)C[C@@H](C(=O)N2CCC[C@H]2C(=O)N[C@@H](CCC(N)=O)C(=O)N[C@@H](CCCNC(=N)N)C(=O)N[C@@H](Cc2ccccc2)C(N)=O)NC(=O)[C@@H]1Cc1ccccc1 [Compound 8, Tyr-c^[2,5][D-Orn-Gly-NMe-Phe-Asp]-Pro-Gln-Arg-Phe-NH2] (H-Y[dOrn]G[NMeF]DPQRF-NH2; lactam 2-5) |  | dose-dependently inhibited cAMP accumulation induced by forskolin | dose-dependently inhibited cAMP accumulation induced by forskolin | dose-dependently inhibited cAMP accumulation induced by forskolin | dose-dependently inhibited cAMP accumulation induced by forskolin | Not permeable |  | dose-dependently inhibited cAMP accumulation induced by forskolin |  |  |  | neither compounds 1-14 could penetrate the blood-brain barrier
